Assay results: US20240376517A1 (THE UNIVERSITY COURT OF THE UNIVERSITY OF EDINBURCH, priority 2021, published 2024)
HELM strings list residues between dots; [ac] is acetyl, [am] amide, other brackets name non-standard units.

Assay: general procedure: peptide synthesis; 2-chlorotrityl chloride polystyrene resin; COMU/Oxyma/DIPEA
Settings: whole synthesis

PEPTIDE1{[SulfoCy5].[Ile-3open].E.P.D.A.L.[PEG4-QSY21]}$$$$V2.0
final HPLC purity: 99%
